The list shows only some results of the screen, not a fair sample: it is rich in T/C values a quarter to a half above the control, in often repeated tests (any T/C) and in doses without a T/C. Other doses and runs of a compound stand elsewhere. T/C: endpoint of the treated group in % of that of the vehicle group. Schedules are NCI's codes, taken here to give the interval after Q, in days (D) or hours (H), and the number of doses after X. Some entries give survivors of the animals treated and no T/C: the source files T/C as zero there, which appears to mark a toxic dose or a test without result, not a measured value. Counts of survivors are from the toxicity check (mostly the fifth day) where no day follows; animals may have died later.
Test system: MX-1 breast xenograft, intrarenal, nude mice, tumor weight
Test: NCI In Vivo Anticancer Drug Screen. Data for tumor model Human Mammary Carcinoma MX-1 Xenograft (intrarenal inoculation) in NU/NU BALB/C (nude) mice
Conditions: T/C endpoint: mean tumor weight change, higher T/C = larger tumour; for T/C: evaluated on day 11
How it was run: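 Compounds were given to mice carrying transplanted tumors, and tumor size or survival was measured. Each value is the treated-group measurement (T) divided by the vehicle-treated control-group measurement (C).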

[1] = dose: 200.0 mg/kg/injection, schedule: Q04DX003 (ip), vehicle: saline
[2] = dose: 400.0 mg/kg/injection, schedule: Q04DX003 (ip), vehicle: saline
[3] = dose: 150.0 mg/kg/injection, schedule: Q04DX003 (ip), vehicle: saline with Tween-80
[4] = dose: 300.0 mg/kg/injection, schedule: Q04DX003 (ip), vehicle: saline with Tween-80
[5] = dose: 600.0 mg/kg/injection, schedule: Q04DX003 (ip), vehicle: saline with Tween-80
[6] = dose: 0.5 mg/kg/injection, schedule: Q04DX003 (ip), vehicle: saline + alcohol

With `C/C(=N\NC(=O)c1ccccc1O)c1cccc(/C(C)=N/NC(=O)c2ccccc2O)n1` the survivor count [1] was 3 of 6 on day 11.

With `O=C(O)CC1C(=O)OC2C3COC(=O)c4cc(O)c(O)c(O)c4-c4c(cc(O)c(O)c4O)C(=O)OC2C(OC(=O)c2cc(O)c(O)c4c2C1C(O)C(=O)O4)C(OC(=O)c1cc(O)c(O)c(O)c1)O3` (stereo unspecified) the survivor count [1] was 1 of 6 on day 11.

`N#Cc1c(-c2ccccc2)c(-c2ccccc2)nn(CC(=O)O)c1=O` was tested, and the survivor count (dose: 400.0 mg/kg/injection, schedule: Q04DX003 (ip), vehicle: distilled water + Tween-80) was 2 of 6 on day 11 and the survivor count (dose: 800.0 mg/kg/injection, schedule: Q04DX003 (ip), vehicle: distilled water + Tween-80) was 0 of 6 on day 11.

With `N#Cc1c(N)[nH]c2ccc(Sc3ccccc3)cc12` the survivor count (dose: 240.0 mg/kg/injection, schedule: Q04DX003 (ip), vehicle: saline with Tween-80) was 3 of 5 on day 11.

In the case of `CN1C2CCC1C(Br)C(=O)C2` (stereo unspecified), the survivor count [2] is reported as 0 of 6 on day 11 and the survivor count (dose: 800.0 mg/kg/injection, schedule: Q04DX003 (ip), vehicle: saline) is reported as 0 of 6 on day 11.

With `Nc1ccc(S(=O)(=O)Nc2cnc3c(Cl)cccc3n2)cc1` the survivor count (dose: 1200.0 mg/kg/injection, schedule: Q04DX003 (ip), vehicle: DMSO) was 3 of 6 on day 11.

With `O=NN(CCCl)C(=O)NC1CCCCC1` the survivor count (dose: 64.0 mg/kg/injection, schedule: Q01DX010 (sc), vehicle: saline with Tween-80) was 0 of 3 on day 11, the survivor count (dose: 100.0 mg/kg/injection, schedule: Q04DX003 (sc), vehicle: Klucel (hydroxypropylcellulose) (HPC)) was 0 of 3 on day 11 and the survivor count (dose: 106.65 mg/kg/injection, schedule: Q04DX003 (ip), vehicle: saline with Tween-80) was 1 of 3 on day 11. For the same compound, the survivor count (dose: 106.65 mg/kg/injection, schedule: Q04DX003 (sc), vehicle: saline with Tween-80) was 1 of 3 on day 11 and the survivor count (dose: 213.3 mg/kg/injection, schedule: Q04DX003 (sc), vehicle: saline with Tween-80) was 0 of 3 on day 11.

With `CCN(CC)CCOCCO` the T/C (dose: 300.0 mg/kg/injection, schedule: Q04DX003 (sc), vehicle: saline) was 129 % of control, the survivor count (dose: 1200.0 mg/kg/injection, schedule: Q04DX003 (sc), vehicle: saline) was 3 of 6 on day 11 and the survivor count (dose: 2400.0 mg/kg/injection, schedule: Q04DX003 (sc), vehicle: saline) was 0 of 6 on day 11.

In the case of `O=C1C2C3C=CC(C2C(=O)N1CO)C1C2C(=O)N(CO)C(=O)C2C31` (stereo unspecified), the survivor count (dose: 150.0 mg/kg/injection, schedule: Q04DX003 (ip), vehicle: water) is reported as 2 of 6 on day 11 and the survivor count (dose: 300.0 mg/kg/injection, schedule: Q04DX003 (ip), vehicle: water) is reported as 0 of 6 on day 11.

For `O=C1NC(=O)NC(C(=O)O)N1`, the survivor count (dose: 800.0 mg/kg/injection, schedule: Q04DX003 (sc), vehicle: Klucel (hydroxypropylcellulose) (HPC)) was 2 of 6 on day 11 and the survivor count (dose: 1600.0 mg/kg/injection, schedule: Q04DX003 (sc), vehicle: Klucel (hydroxypropylcellulose) (HPC)) was 2 of 6 on day 11.

With `[NH-]C(CCC(N)=O)C(=O)O.[NH-]C(CCC(N)=O)C(=O)O.[Zn+2]` (stereo unspecified) the survivor count [3] was 0 of 6 on day 11, the survivor count [4] was 0 of 6 on day 11 and the survivor count [5] was 0 of 6 on day 11.

With `CCCCCCCC(=O)OCC(=O)[C@]1(O)Cc2c(O)c3c(c(O)c2[C@@H](OC2CC(N)C(O)C(C)O2)C1)C(=O)c1c(OC)cccc1C3=O` (stereo partly specified) the survivor count (dose: 8.0 mg/kg/injection, schedule: Q01DX010 (ip), vehicle: suspension in saline) was 0 of 6 on day 11, the survivor count (dose: 16.0 mg/kg/injection, schedule: Q01DX010 (ip), vehicle: suspension in saline) was 0 of 6 on day 11 and the survivor count (dose: 16.0 mg/kg/injection, schedule: Q01DX010 (sc), vehicle: saline) was 0 of 6 on day 11. The survivor count (dose: 16.0 mg/kg/injection, schedule: Q04DX003 (ip), vehicle: saline) was 0 of 6 on day 11.

With `CC(C)CC(=O)NC(C(=O)NC(C(=O)NC(CC(C)C)C(O)CC(=O)NC(C)C(=O)NC(CC(C)C)C(O)CC(=O)O)C(C)C)C(C)C` (stereo unspecified) the survivor count (dose: 300.0 mg/kg/injection, schedule: Q04DX003 (ip), vehicle: Klucel (hydroxypropylcellulose) (HPC)) was 3 of 6 on day 11, the survivor count (dose: 600.0 mg/kg/injection, schedule: Q04DX003 (ip), vehicle: Klucel (hydroxypropylcellulose) (HPC)) was 0 of 6 on day 11 and the survivor count (dose: 1200.0 mg/kg/injection, schedule: Q04DX002 (ip), vehicle: Klucel (hydroxypropylcellulose) (HPC)) was 0 of 6 on day 11. The survivor count (dose: 1200.0 mg/kg/injection, schedule: Q04DX003 (ip), vehicle: Klucel (hydroxypropylcellulose) (HPC)) was 0 of 6 on day 11.

With `CCC(=O)N(C)[C@@H](C)C(=O)O[C@H]1CC(=O)N(C)c2cc(cc(OC)c2Cl)C/C(C)=C/C=C[C@@H](OC)[C@@]2(O)C[C@H](OC(=O)N2)[C@@H](C)[C@@H]2O[C@@]12C` the survivor count (dose: 0.12 mg/kg/injection, schedule: Q04DX003 (ip), vehicle: saline + alcohol) was 1 of 6 on day 11, the survivor count (dose: 0.25 mg/kg/injection, schedule: Q04DX003 (ip), vehicle: saline + alcohol) was 0 of 6 on day 11 and the survivor count [6] was 0 of 6 on day 11. For the same compound, the survivor count (dose: 1.0 mg/kg/injection, schedule: Q04DX003 (ip), vehicle: saline + alcohol) was 0 of 6 on day 11, the survivor count (dose: 1.0 mg/kg/injection, schedule: Q04DX003 (sc), vehicle: saline + alcohol) was 0 of 6 on day 11 and the survivor count (dose: 30.0 micrograms/kg/injection, schedule: Q04DX004 (ip), vehicle: saline + alcohol) was 3 of 6 on day 15. The survivor count (dose: 60.0 micrograms/kg/injection, schedule: Q04DX004 (ip), vehicle: saline + alcohol) was 1 of 6 on day 15.

For `CCC1OC(OC)C=CC1=O` (stereo unspecified), the survivor count (dose: 150.0 mg/kg/injection, schedule: Q04DX003 (sc), vehicle: saline) was 0 of 6 on day 11.

With `CCC(/C=C/C1OC(=O)C=CC1C)=C\C(C)C/C=C/C(C)=C/C(C)C(=O)C(C)C(O)C(C)C/C(C)=C/C(=O)O` (stereo unspecified) the T/C [6] was 130 % of control.

For `CC(C)N1C(=O)N(Cl)C2C1N(Cl)C(=O)N2Cl` (stereo unspecified), the T/C (dose: 12.5 mg/kg/injection, schedule: Q04DX003 (ip), vehicle: saline with Tween-80) was 125 % of control, the T/C (dose: 50.0 mg/kg/injection, schedule: Q04DX003 (ip), vehicle: saline with Tween-80) was 130 % of control and the survivor count (dose: 100.0 mg/kg/injection, schedule: Q04DX003 (ip), vehicle: saline with Tween-80) was 1 of 6 on day 11. For the same compound, the survivor count [3] was 3 of 6 on day 11, the survivor count [4] was 0 of 6 on day 11 and the survivor count [5] was 0 of 6 on day 11. For the same compound, the survivor count (dose: 1200.0 mg/kg/injection, schedule: Q04DX003 (ip), vehicle: saline with Tween-80) was 0 of 6 on day 11.

For `N=C(N)c1nn(C2OC(CO)C(O)C2O)c2nc[nH]c(=O)c12` (stereo unspecified), the survivor count (dose: 20.0 mg/kg/injection, schedule: Q01DX010 (ip), vehicle: Klucel + Tween-80) was 3 of 6 on day 11, the survivor count (dose: 40.0 mg/kg/injection, schedule: Q01DX010 (ip), vehicle: Klucel + Tween-80) was 0 of 6 on day 11 and the survivor count (dose: 60.0 mg/kg/injection, schedule: Q01DX010 (ip), vehicle: Klucel + Tween-80) was 0 of 6 on day 11. The survivor count (dose: 80.0 mg/kg/injection, schedule: Q01DX010 (ip), vehicle: Klucel + Tween-80) was 0 of 6 on day 11 and the survivor count (dose: 200.0 mg/kg/injection, schedule: Q04DX003 (ip), vehicle: distilled water + Tween-80 + alcohol) was 0 of 6 on day 11.

With `COc1ccc(C=C(C(=O)CCN(C)C)C(=O)CCN(C)C)cc1` the survivor count [2] was 1 of 6 on day 11.

`CN1COc2c(n(C)c(=O)[nH]c2=O)C1` was tested, and the T/C (dose: 100.0 mg/kg/injection, schedule: Q04DX003 (ip), vehicle: saline) was 128 % of control.

`c1ccc(P(CCNCCP(c2ccccc2)c2ccccc2)c2ccccc2)cc1` was tested, and the T/C (dose: 400.0 mg/kg/injection, schedule: Q04DX003 (ip), vehicle: saline with Tween-80) was 139 % of control.

In the case of `COc1cccc2c1C(=O)c1c(O)c3c(c(O)c1C2=O)C[C@@](O)(/C(C)=N\O)C[C@@H]3OC1CC(N)C(O)C(C)O1` (stereo partly specified), the survivor count (dose: 100.0 mg/kg/injection, schedule: Q04DX003 (sc), vehicle: saline) is reported as 0 of 6 on day 11.

Reference: PubChem BioAssay AID298 (DTP/NCI, 2004)
